Data published in the supplement of paper PMC10849652.
The other results are listed elsewhere or left out.

Protein sequences, listed by entry. Tags and fused reporters are not part of them. Lines headed by an entry give the natural chain unless they say otherwise; changes in a name come on top.
UniProt P53384: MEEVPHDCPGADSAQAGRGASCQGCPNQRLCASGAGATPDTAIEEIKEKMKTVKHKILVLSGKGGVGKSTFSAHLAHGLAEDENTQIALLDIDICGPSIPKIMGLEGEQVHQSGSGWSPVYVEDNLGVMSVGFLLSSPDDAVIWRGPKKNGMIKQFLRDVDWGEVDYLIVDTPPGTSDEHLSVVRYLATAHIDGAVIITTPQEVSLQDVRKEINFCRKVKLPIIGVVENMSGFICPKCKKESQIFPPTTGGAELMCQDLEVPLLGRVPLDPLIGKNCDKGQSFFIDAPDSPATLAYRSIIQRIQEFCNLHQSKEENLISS
UniProt O43929: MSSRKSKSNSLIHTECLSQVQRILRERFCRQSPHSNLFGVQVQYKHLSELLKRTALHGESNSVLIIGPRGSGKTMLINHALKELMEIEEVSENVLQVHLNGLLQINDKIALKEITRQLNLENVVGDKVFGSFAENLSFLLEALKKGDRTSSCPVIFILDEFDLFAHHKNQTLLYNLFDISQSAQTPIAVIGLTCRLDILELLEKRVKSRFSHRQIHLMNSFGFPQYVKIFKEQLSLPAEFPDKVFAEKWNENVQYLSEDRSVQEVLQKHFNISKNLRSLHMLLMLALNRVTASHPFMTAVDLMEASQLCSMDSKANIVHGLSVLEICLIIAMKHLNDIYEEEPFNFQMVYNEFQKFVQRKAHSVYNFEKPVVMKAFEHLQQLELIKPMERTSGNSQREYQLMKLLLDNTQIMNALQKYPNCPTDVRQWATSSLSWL
UniProt Q99567: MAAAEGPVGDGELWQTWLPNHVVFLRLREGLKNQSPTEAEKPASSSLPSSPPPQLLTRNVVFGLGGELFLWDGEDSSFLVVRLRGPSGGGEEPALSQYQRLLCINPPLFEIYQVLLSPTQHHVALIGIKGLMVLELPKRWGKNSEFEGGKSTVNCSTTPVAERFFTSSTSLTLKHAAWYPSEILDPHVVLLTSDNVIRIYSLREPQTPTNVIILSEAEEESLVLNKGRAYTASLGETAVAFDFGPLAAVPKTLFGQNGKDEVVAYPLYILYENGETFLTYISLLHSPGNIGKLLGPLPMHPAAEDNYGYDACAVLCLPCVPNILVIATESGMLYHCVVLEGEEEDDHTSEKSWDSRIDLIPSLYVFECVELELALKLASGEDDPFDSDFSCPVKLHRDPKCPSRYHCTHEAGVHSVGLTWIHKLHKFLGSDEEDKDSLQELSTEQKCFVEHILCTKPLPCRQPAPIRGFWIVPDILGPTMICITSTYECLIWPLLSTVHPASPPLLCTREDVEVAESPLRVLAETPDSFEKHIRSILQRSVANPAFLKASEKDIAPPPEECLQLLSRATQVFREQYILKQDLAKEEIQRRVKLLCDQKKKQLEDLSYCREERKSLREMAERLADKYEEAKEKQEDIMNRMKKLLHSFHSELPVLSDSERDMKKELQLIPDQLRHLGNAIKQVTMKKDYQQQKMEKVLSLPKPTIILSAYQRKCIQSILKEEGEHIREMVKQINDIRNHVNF
UniProt Q96CB9: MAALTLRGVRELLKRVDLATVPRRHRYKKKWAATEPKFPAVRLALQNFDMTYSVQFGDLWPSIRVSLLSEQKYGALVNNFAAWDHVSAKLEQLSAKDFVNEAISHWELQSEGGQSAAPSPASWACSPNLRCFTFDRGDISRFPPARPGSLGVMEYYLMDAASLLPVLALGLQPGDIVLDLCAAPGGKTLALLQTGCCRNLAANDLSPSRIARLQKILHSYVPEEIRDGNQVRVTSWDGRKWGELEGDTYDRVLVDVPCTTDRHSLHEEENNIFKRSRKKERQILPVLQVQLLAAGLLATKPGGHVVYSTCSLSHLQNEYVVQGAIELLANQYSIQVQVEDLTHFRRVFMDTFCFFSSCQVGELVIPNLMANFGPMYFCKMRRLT
UniProt Q01968: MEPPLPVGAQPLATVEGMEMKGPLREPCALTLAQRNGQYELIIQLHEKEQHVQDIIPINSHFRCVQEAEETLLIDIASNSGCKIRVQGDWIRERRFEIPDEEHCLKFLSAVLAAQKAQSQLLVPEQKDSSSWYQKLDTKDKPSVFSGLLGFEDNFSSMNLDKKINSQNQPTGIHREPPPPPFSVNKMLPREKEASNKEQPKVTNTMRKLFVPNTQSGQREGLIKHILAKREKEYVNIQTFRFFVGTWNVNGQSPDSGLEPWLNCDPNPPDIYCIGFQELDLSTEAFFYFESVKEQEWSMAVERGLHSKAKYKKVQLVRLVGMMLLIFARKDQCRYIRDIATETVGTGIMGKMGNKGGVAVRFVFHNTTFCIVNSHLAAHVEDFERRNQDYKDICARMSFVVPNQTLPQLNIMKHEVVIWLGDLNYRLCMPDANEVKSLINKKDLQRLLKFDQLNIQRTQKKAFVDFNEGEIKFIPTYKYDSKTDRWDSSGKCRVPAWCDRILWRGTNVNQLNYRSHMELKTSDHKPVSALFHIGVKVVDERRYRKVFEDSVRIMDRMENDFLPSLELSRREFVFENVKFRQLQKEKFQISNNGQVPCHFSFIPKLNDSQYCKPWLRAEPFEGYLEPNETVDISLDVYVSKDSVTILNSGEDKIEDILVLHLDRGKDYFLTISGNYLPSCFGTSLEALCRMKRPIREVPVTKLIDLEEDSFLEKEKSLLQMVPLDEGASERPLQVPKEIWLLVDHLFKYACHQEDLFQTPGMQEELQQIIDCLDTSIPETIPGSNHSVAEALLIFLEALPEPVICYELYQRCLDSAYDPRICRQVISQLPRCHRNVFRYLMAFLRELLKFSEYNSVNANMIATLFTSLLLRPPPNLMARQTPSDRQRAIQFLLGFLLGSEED
UniProt Q7Z417: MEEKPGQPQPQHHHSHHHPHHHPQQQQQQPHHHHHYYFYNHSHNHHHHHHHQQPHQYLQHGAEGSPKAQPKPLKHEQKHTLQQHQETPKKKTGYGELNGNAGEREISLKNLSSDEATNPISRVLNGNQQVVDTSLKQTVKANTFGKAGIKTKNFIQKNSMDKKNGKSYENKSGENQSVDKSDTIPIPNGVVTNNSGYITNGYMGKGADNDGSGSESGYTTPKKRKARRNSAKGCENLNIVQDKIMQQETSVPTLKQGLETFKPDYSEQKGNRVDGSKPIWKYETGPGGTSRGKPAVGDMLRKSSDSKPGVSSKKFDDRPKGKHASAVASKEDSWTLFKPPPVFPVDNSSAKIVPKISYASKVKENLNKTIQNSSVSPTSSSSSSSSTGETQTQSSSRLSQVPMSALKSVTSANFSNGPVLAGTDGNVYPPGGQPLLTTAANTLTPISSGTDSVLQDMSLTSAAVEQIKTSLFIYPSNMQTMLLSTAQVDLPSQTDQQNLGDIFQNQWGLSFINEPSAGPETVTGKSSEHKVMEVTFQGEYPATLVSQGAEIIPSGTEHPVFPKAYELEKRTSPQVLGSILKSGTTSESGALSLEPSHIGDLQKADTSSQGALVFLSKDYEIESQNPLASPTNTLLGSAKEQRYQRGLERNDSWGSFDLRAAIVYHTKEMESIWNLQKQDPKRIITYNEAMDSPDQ
UniProt Q9NPF4: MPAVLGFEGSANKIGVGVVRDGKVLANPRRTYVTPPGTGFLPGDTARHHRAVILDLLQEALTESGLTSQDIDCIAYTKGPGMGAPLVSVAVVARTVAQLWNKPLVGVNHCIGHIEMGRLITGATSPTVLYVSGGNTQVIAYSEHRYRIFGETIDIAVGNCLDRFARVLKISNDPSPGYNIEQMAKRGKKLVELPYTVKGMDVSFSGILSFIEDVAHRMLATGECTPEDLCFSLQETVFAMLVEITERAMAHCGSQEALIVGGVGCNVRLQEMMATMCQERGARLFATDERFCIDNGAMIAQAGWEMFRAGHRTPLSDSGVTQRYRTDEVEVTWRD
UniProt Q96P11: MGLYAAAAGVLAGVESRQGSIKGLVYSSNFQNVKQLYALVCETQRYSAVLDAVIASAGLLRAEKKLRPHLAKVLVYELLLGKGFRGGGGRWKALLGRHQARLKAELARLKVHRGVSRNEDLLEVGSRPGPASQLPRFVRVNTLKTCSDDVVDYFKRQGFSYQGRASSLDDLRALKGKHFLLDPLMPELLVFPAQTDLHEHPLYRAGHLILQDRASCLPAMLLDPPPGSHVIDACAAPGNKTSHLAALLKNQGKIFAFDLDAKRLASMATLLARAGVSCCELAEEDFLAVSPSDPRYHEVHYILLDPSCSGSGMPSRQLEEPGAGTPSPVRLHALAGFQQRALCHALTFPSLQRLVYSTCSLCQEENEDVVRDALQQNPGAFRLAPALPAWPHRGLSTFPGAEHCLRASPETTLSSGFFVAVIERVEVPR
UniProt Q9Y5A7: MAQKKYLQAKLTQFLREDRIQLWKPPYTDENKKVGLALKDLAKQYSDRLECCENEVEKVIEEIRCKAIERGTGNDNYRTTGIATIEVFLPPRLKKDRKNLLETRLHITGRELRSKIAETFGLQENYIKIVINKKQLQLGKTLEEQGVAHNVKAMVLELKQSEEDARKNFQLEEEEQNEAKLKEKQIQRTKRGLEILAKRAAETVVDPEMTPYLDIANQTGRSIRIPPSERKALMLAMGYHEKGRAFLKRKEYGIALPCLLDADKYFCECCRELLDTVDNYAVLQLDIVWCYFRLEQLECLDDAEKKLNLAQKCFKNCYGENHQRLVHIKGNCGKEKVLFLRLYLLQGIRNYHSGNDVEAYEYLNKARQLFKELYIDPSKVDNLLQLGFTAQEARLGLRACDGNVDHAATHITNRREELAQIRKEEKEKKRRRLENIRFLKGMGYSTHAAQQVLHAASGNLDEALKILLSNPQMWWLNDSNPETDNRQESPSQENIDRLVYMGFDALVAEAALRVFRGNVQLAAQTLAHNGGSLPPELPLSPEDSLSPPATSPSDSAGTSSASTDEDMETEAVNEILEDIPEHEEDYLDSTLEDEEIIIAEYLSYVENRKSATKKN
UniProt Q96MG7: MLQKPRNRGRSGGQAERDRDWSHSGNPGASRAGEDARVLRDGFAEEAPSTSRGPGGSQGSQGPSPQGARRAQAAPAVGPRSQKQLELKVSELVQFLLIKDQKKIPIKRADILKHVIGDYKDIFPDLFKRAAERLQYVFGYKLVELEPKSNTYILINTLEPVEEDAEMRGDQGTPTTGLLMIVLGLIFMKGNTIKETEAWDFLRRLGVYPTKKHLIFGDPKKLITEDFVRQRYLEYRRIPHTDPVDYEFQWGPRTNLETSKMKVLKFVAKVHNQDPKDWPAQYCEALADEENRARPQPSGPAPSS
UniProt Q8NFH3: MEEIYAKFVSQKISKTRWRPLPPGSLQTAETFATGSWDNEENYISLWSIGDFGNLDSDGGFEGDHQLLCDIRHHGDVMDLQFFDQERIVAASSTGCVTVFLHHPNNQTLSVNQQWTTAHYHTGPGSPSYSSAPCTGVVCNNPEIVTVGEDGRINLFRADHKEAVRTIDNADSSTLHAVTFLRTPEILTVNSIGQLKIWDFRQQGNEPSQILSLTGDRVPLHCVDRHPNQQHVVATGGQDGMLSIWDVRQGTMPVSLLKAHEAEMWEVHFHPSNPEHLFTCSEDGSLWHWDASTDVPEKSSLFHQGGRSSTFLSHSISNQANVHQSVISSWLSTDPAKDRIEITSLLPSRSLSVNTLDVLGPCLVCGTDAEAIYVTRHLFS
UniProt Q92882: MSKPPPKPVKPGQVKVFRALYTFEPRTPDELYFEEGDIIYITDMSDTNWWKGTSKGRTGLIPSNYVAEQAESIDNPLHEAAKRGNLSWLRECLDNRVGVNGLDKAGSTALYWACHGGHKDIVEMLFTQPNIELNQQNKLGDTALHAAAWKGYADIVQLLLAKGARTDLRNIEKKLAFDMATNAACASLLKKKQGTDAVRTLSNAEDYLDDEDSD
UniProt Q9Y266: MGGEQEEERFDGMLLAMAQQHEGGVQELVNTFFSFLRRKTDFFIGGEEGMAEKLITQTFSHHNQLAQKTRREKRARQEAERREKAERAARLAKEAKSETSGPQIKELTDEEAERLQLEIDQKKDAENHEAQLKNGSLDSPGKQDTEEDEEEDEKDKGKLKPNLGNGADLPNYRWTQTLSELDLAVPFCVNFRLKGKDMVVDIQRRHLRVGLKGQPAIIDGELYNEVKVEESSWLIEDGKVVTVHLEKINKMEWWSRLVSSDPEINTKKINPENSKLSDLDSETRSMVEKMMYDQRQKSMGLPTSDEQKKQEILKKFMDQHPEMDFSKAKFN
UniProt Q9BRJ7: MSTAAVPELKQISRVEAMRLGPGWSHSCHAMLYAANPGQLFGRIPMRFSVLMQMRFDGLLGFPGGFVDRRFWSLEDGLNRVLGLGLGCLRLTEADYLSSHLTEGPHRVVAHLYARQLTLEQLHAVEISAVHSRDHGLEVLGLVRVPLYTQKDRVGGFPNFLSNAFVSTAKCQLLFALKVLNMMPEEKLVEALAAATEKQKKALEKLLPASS
UniProt Q9NZJ9: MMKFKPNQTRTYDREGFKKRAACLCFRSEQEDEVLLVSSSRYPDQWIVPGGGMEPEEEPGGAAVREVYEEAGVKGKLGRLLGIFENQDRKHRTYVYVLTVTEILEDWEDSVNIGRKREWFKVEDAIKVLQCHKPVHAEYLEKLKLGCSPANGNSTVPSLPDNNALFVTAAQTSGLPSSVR

What was measured:
Assay in all cases: log2 fold change, soluble protein after heating vs DMSO (PISA); higher = thermal stabilisation; K562 cells, 10 uM, 30 min; active = over 0.2 and 3.5 SD of the protein, either way, in both replicates (recomputed)
[1] = compound: CC[C@@H]1C(=O)N(C)c2cnc(Nc3ccc(C(=O)NC4CCN(C)CC4)cc3OC)nc2N1C1CCCC1
Method in brief: (§1)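 K562 cells at 2×10^6 cells/mL were exposed to 10 μM compound for 30 min, then aliquots were heated for 3 min across 48°C-58°C, pooled, and extracted in PBS containing 0.5% NP-40 at 4°C. The supernatant after 21,000xg for 90 min was taken as soluble protein and measured by TMTpro 16plex LC-MS/MS with channel sums equalised. Thermal stability is reported relative to control samples, with values from duplicates. Fold changes are given on a log2 scale.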

volasertib = compound: CC[C@@H]1C(=O)N(C)c2cnc(Nc3ccc(C(=O)N[C@H]4CC[C@H](N5CCN(CC6CC6)CC5)CC4)cc3OC)nc2N1C(C)C [volasertib]
Method in brief: as §1

[2] = compound: CC[C@H](C)N1C=C(C2=C(C=C(C=C21)C3=CN=C(C=C3)N4CCNCC4)C(=O)NCC5=C(C=C(NC5=O)C)C)C
Method in brief: as §1

epoxomicin = compound: CC[C@H](C)[C@@H](C(=O)N[C@@H]([C@@H](C)O)C(=O)N[C@@H](CC(C)C)C(=O)[C@]1(CO1)C)NC(=O)[C@H]([C@@H](C)CC)N(C)C(=O)C [epoxomicin]
Method in brief: as §1

[3] = compound: CCn1c(C(=O)N(C2CC2)C2CC2)cc2c3c(ncn3C)c(Nc3cc(C)n(C)n3)nc21
Method in brief: as §1

[4] = compound: CCn1cc(-c2ccnc3[nH]c(-c4cccc(CN(C)C)c4)cc23)c(-c2ccc(NC(=O)N(C)C)cc2)n1
Method in brief: as §1

[5] = compound: CN(C)CC(=O)Nc1ccc2[nH]c(=O)c3ccccc3c2c1
Method in brief: as §1

rosiglitazone = compound: CN(CCOC1=CC=C(C=C1)C[C@H]2C(=O)NC(=O)S2)C3=CC=CC=N3 (racemic) [rosiglitazone]
Method in brief: as §1

[6] = compound: CN1C2=C(C3=C1C(=O)N(N=C3)CC4=CC(=CC=C4)N)SC(=C2)S(=O)C
Method in brief: as §1

[7] = compound: CN1CCC(CNc2ccc3ncc(-c4cccc(OC(F)(F)F)c4)n3n2)CC1
Method in brief: as §1

saracatinib = compound: CN1CCN(CCOc2cc(OC3CCOCC3)c3c(Nc4c(Cl)ccc5c4OCO5)ncnc3c2)CC1 [saracatinib]
Method in brief: as §1

sotrastaurin = compound: CN1CCN(c2nc(C3=C(c4c[nH]c5ccccc45)C(=O)NC3=O)c3ccccc3n2)CC1 [sotrastaurin]
Method in brief: as §1

alvocidib = compound: CN1CC[C@H](c2c(O)cc(O)c3c(=O)cc(-c4ccccc4Cl)oc23)[C@H](O)C1 [alvocidib]
Method in brief: as §1

Tubastatin A = compound: CN1CCc2c(c3ccccc3n2Cc2ccc(C(=O)NO)cc2)C1 [Tubastatin A]
Method in brief: as §1

[8] = compound: CNC(=O)C1=CC=CC=C1NC2=NC(=NC=C2Cl)NC3=C(C=C(C=C3)N4CCOCC4)OC
Method in brief: as §1

defactinib = compound: CNC(=O)c1ccc(Nc2ncc(C(F)(F)F)c(NCc3nccnc3N(C)S(C)(=O)=O)n2)cc1 [defactinib]
Method in brief: as §1

rucaparib = compound: CNCc1ccc(-c2[nH]c3cc(F)cc4c3c2CCNC4=O)cc1 [rucaparib]
Method in brief: as §1

[9] = compound: CNc1nc(-c2ccc3c(N)n[nH]c3c2)cc(N2C[C@@H](C(=O)NC3CCCCC3)CC[C@H]2C)n1
Method in brief: as §1

encorafenib = compound: COC(=O)N[C@@H](C)CNc1nccc(-c2cn(C(C)C)nc2-c2cc(Cl)cc(NS(C)(=O)=O)c2F)n1 [encorafenib]
Method in brief: as §1

[10] = compound: COC(=O)[C@H](CCSC)NC(=O)C1=C(C=C(C=C1)NC[C@H](CS)N)C2=CC=CC=C2
Method in brief: as §1

Measured: log2 fold change

NUBP1 (UniProt P53384)
inactive: [1] 0.001 | volasertib -0.013 | [2] 0.019 | epoxomicin 0.019 | [3] 0.022 | [4] -0.019 | [5] 0.043 | rosiglitazone 0.061 | [6] -0.051 | [7] -0.116 | saracatinib 0.011 | sotrastaurin 0.039 | alvocidib -0.067 | Tubastatin A -0.007 | [8] -0.009 | defactinib -0.054 | rucaparib -0.039 | [9] 0.013 | encorafenib 0.005 | [10] -0.089

NUP93 (UniProt Q8N1F7)
inactive: [1] -0.059 | volasertib -0.206 | [2] 0.083 | epoxomicin -0.011 | [3] -0.059 | [4] -0.002 | [5] 0.036 | rosiglitazone 0.066 | [6] 0.036 | [7] -0.083 | saracatinib -0.059 | sotrastaurin -0.144 | alvocidib -0.057 | Tubastatin A 0.02 | [8] -0.009 | defactinib -0.052 | rucaparib 0.087 | [9] 0.002 | encorafenib 0.071 | [10] -0.042

ORC4 (UniProt O43929)
inactive: [1] -0.09 | volasertib -0.284 | [2] 0.082 | epoxomicin 0.042 | [3] -0.062 | [4] -0.148 | [5] 0.011 | rosiglitazone 0.062 | [6] -0.058 | [7] -0.247 | saracatinib -0.039 | sotrastaurin -0.098 | alvocidib -0.095 | Tubastatin A 0.023 | [8] -0.083 | defactinib -0.107 | rucaparib 0.034 | [9] 0.034 | encorafenib 0.111 | [10] -0.003

NUP88 (UniProt Q99567)
inactive: [1] -0.107 | volasertib -0.416 | [2] 0.053 | epoxomicin -0.069 | [3] -0.033 | [4] -0.004 | [5] 0.011 | rosiglitazone 0.044 | [6] 0.152 | [7] 0.001 | saracatinib -0.054 | sotrastaurin -0.214 | alvocidib 0.014 | Tubastatin A 0.037 | [8] 0.02 | defactinib 0.01 | rucaparib 0.207 | [9] 0.076 | encorafenib 0.166 | [10] -0.058

NSUN4 (UniProt Q96CB9)
inactive: [1] 0.076 | volasertib 0.064 | [2] 0.046 | epoxomicin 0.009 | [3] -0.033 | [4] -0.018 | [5] -0.064 | rosiglitazone -0.047 | [6] 0.099 | [7] 0.04 | saracatinib -0.064 | sotrastaurin 0.055 | alvocidib -0.06 | Tubastatin A 0.005 | [8] -0.01 | defactinib 0.08 | rucaparib 0.177 | [9] 0.074 | encorafenib 0.051 | [10] -0.076

OCRL (UniProt Q01968)
inactive: [1] 0.142 | volasertib 0.001 | [2] 0.113 | epoxomicin -0.043 | [3] 0.024 | [4] 0.076 | [5] 0.009 | rosiglitazone 0.052 | [6] 0.039 | [7] -0.025 | saracatinib -0.035 | sotrastaurin -0.016 | alvocidib -0.032 | Tubastatin A 0.009 | [8] 0.106 | defactinib 0.048 | rucaparib -0.048 | [9] -0.033 | encorafenib 0.076 | [10] -0.101

NUFIP2 (UniProt Q7Z417)
inactive: [1] 0.066 | volasertib 0.075 | [2] -0.001 | epoxomicin -0.076 | [3] 0.008 | [4] 0.067 | [5] -0.046 | rosiglitazone -0.074 | [6] 0.137 | [7] 0.114 | saracatinib 0.05 | sotrastaurin 0.01 | alvocidib 0.105 | Tubastatin A -0.008 | [8] 0.002 | defactinib 0.075 | rucaparib 0.154 | [9] -0.026 | encorafenib 0.009 | [10] 0

OSGEP (UniProt Q9NPF4)
inactive: [1] 0.022 | volasertib 0.055 | [2] -0.042 | epoxomicin 0.013 | [3] -0.036 | [4] -0.012 | [5] -0.008 | rosiglitazone 0.031 | [6] -0.071 | [7] 0.004 | saracatinib 0.039 | sotrastaurin 0.057 | alvocidib -0.021 | Tubastatin A -0.065 | [8] -0.033 | defactinib -0.009 | rucaparib -0.052 | [9] -0.005 | encorafenib 0.001 | [10] 0.021

Fetched one by one from the list above, two records:
OSGEP (UniProt Q9NPF4)
inactive: [1] 0.022 | volasertib 0.055 | [2] -0.042 | epoxomicin 0.013 | [3] -0.036 | [4] -0.012 | [5] -0.008 | rosiglitazone 0.031 | [6] -0.071 | [7] 0.004 | saracatinib 0.039 | sotrastaurin 0.057 | alvocidib -0.021 | Tubastatin A -0.065 | [8] -0.033 | defactinib -0.009 | rucaparib -0.052 | [9] -0.005 | encorafenib 0.001 | [10] 0.021

NUP88 (UniProt Q99567)
inactive: [1] -0.107 | volasertib -0.416 | [2] 0.053 | epoxomicin -0.069 | [3] -0.033 | [4] -0.004 | [5] 0.011 | rosiglitazone 0.044 | [6] 0.152 | [7] 0.001 | saracatinib -0.054 | sotrastaurin -0.214 | alvocidib 0.014 | Tubastatin A 0.037 | [8] 0.02 | defactinib 0.01 | rucaparib 0.207 | [9] 0.076 | encorafenib 0.166 | [10] -0.058

Additional results

NSUN5 isoform 2 (UniProt Q96P11)
inactive: [1] 0.102 | volasertib -0.049 | [2] 0.046 | epoxomicin 0.004 | [3] 0.043 | [4] 0.085 | [5] -0.039 | rosiglitazone -0.113 | [6] 0.112 | [7] -0.032 | saracatinib 0.091 | sotrastaurin -0.005 | alvocidib 0.063 | Tubastatin A 0.082 | [8] -0.029 | defactinib -0.007 | rucaparib -0.026 | [9] 0.099 | encorafenib 0.035 | [10] 0.078

NUB1 (UniProt Q9Y5A7)
inactive: [1] -0.014 | volasertib -0.5 | [2] 0.065 | epoxomicin 0.04 | [3] -0.046 | [4] 0.034 | [5] 0.073 | rosiglitazone 0.089 | [6] 0.161 | [7] -0.142 | saracatinib -0.037 | sotrastaurin -0.085 | alvocidib -0.05 | Tubastatin A 0.153 | [8] 0.06 | defactinib -0.017 | rucaparib 0.153 | [9] 0.09 | encorafenib 0.044 | [10] 0.055

NSMCE3 (UniProt Q96MG7)
inactive: [1] 0.093 | volasertib 0.032 | [2] -0.121 | epoxomicin -0.004 | [3] -0.033 | [4] -0.016 | [5] 0.008 | rosiglitazone -0.014 | [6] 0.023 | [7] 0.204 | saracatinib -0.031 | sotrastaurin -0.027 | alvocidib 0.005 | Tubastatin A -0.127 | [8] 0.033 | defactinib 0.09 | rucaparib 0.121 | [9] -0.047 | encorafenib 0 | [10] -0.041

NUP43 (UniProt Q8NFH3)
inactive: [1] 0.003 | volasertib -0.061 | [2] 0.01 | epoxomicin 0.028 | [3] -0.041 | [4] -0.032 | [5] -0.02 | rosiglitazone 0.03 | [6] -0.027 | [7] 0.001 | saracatinib 0.041 | sotrastaurin 0.005 | alvocidib -0.043 | Tubastatin A 0.036 | [8] -0.023 | defactinib -0.018 | rucaparib 0.004 | [9] -0.049 | encorafenib 0.008 | [10] 0.042

OSTF1 (UniProt Q92882)
inactive: [1] -0.182 | volasertib -0.072 | [2] -0.062 | epoxomicin 0.055 | [3] -0.059 | [4] -0.093 | [5] 0.07 | rosiglitazone 0.002 | [6] 0.008 | [7] -0.056 | saracatinib 0.015 | sotrastaurin 0.033 | alvocidib -0.006 | Tubastatin A 0.024 | [8] 0.024 | defactinib -0.099 | rucaparib -0.077 | [9] -0.044 | encorafenib -0.018 | [10] -0.15

NUDC (UniProt Q9Y266)
inactive: [1] -0.074 | volasertib 0.031 | [2] 0.047 | epoxomicin 0.023 | [3] -0.001 | [4] -0.076 | [5] -0.026 | rosiglitazone 0.045 | [6] -0.052 | [7] -0.056 | saracatinib 0.017 | sotrastaurin 0.03 | alvocidib -0.066 | Tubastatin A 0 | [8] 0.012 | defactinib -0.011 | rucaparib -0.074 | [9] 0.021 | encorafenib 0.051 | [10] 0.026

NUDT16L1 (UniProt Q9BRJ7)
inactive: [1] 0.013 | volasertib 0.064 | [2] -0.048 | epoxomicin 0.015 | [3] 0.018 | [4] 0.002 | [5] 0.021 | rosiglitazone -0.047 | [6] -0.013 | [7] -0.009 | saracatinib 0.048 | sotrastaurin 0.052 | alvocidib -0.008 | Tubastatin A -0.062 | [8] -0.017 | defactinib 0.049 | rucaparib 0.007 | [9] 0.092 | encorafenib 0.004 | [10] -0.021

NUDT4 (UniProt Q9NZJ9)
inactive: [1] -0.121 | volasertib -0.181 | [2] 0.023 | epoxomicin 0.04 | [3] 0.006 | [4] -0.001 | [5] 0.01 | rosiglitazone 0.061 | [6] -0.071 | [7] -0.184 | saracatinib 0.005 | sotrastaurin -0.046 | alvocidib -0.076 | Tubastatin A -0.008 | [8] 0.039 | defactinib -0.084 | rucaparib 0.008 | [9] -0.031 | encorafenib 0.011 | [10] -0.059
